## Results from one PubChem assay

Data taken from PubChem BioAssay AID1053133, deposited by Broad Institute (2014).

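Vaccinia-infected cells with a two-color viral stage reporter; Venus fluorescence read on a plate reader; the cell line is not named here; timing not stated here.
The test concentration is not given here.
Percent change in Venus reporter signal; lower (more negative) values mean stronger inhibition of that viral stage.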

Values are in %.
How 0% and 100% were set is not given here.
Common to all entries: measured here: Venus reporter, other viral stage.
Part of the compounds only, not a random draw; the main read-out is not listed here.

structure,activity change (Venus) (%)
C[C@H]1CN([C@@H](C)CO)C(=O)c2cc(C#CC3CCCCC3)cnc2O[C@@H]1CN(C)S(=O)(=O)c1cccc(F)c1,-38.67
C[C@H](CO)N1C[C@H](C)[C@H](CN(C)Cc2ccc(Cl)c(Cl)c2)OCCCC[C@H](C)Oc2ccc(NC(=O)c3ccccc3)cc2C1=O,-37.56
O=C(C1CCCC1)N1CCCCN2[C@H](C1)[C@@H](c1ccc(-c3cccc(F)c3)cc1)[C@@H]2CO,-32.71
Cc1noc(C)c1S(=O)(=O)Nc1ccc2c(c1)C(=O)N([C@H](C)CO)C[C@@H](C)[C@@H](CN(C)Cc1ccc(Cl)c(Cl)c1)OCCCC[C@H](C)O2,-53.78
C[C@@H]1CCCCO[C@@H](CN(C)S(=O)(=O)c2ccc(Cl)cc2)[C@H](C)CN([C@@H](C)CO)C(=O)c2cc(NC(=O)c3ccccc3)ccc2O1,-40.39
COc1ccc(S(=O)(=O)Nc2ccc3c(c2)CC(=O)N([C@H](C)CO)C[C@H](C)[C@@H](CN(C)Cc2ccc(C(F)(F)F)cc2)O3)cc1,-53.19
COc1ccc([Si](C)(C)[C@H]2[C@H](CCO)O[C@@]3(C(=O)N(Cc4cccc(N5CCOC5=O)c4)c4ccccc43)[C@@H]2C)cc1,-80.14
C[C@@H]1CN([C@@H](C)CO)S(=O)(=O)c2ccc(/C=C/c3ccccc3)cc2O[C@@H]1CN(C)C(=O)C1CC1,-59.59
C[C@H]1CN([C@@H](C)CO)S(=O)(=O)c2ccc(-c3ccc(F)cc3)cc2O[C@@H]1CN(C)C(=O)c1ccccc1F,-29.62
C[C@@H]1CCCCO[C@H](CN(C)Cc2ccc3c(c2)OCO3)[C@H](C)CN([C@H](C)CO)C(=O)c2cc(NC(=O)c3ccccc3)ccc2O1,-47.59
Cc1ccc(S(=O)(=O)N(C)C[C@@H]2OCCCC[C@@H](C)Oc3ccc(NC(=O)CCC(F)(F)F)cc3C(=O)N([C@@H](C)CO)C[C@H]2C)cc1,-38.6
CCCC#Cc1ccc2c(c1)O[C@H](CN(C)C(=O)CN(C)C)[C@@H](C)CN([C@@H](C)CO)S2(=O)=O,-33.13
O=C(c1cccc(F)c1)N1CCCCN2[C@H](CO)[C@@H](c3ccc(/C=C/c4ccccc4)cc3)[C@H]2C1,-48.66
CC(=O)N1CCCCN2[C@@H](CO)[C@H](c3ccc(C#Cc4ccccc4F)cc3)[C@@H]2C1,-47.85
C[C@@H]1CCCCO[C@H](CN(C)Cc2ccc(C(F)(F)F)cc2)[C@H](C)CN([C@H](C)CO)C(=O)c2cc(NS(=O)(=O)c3cccs3)ccc2O1,-30.37
O=S(=O)(c1ccc(F)cc1)N1CCCCN2[C@H](CO)[C@@H](c3ccc(-c4ccccc4F)cc3)[C@H]2C1,-40.82
C[C@@H]1CN([C@H](C)CO)C(=O)c2cccc(NS(=O)(=O)c3ccc(Cl)cc3)c2O[C@@H]1CN(C)C(=O)Nc1ccc(C(F)(F)F)cc1,-30.34
COc1ccc(S(=O)(=O)N(C)C[C@@H]2Oc3ccc(NC(=O)NC4CCCCC4)cc3C(=O)N([C@@H](C)CO)C[C@@H]2C)cc1,-26.49
N#C[C@@H]1[C@H](c2ccc(C3=CCCCC3)cc2)[C@H](CO)N1C(=O)c1cccc(F)c1,-38.31
COc1ccc2c3c(n(C)c2c1)[C@H](CO)NCC31CCN(Cc2cc(F)ccc2F)CC1,-44.16
C[C@H](CO)N1C[C@H](C)[C@@H](CN(C)Cc2ccccc2)OCCCC[C@H](C)Oc2ccc(NS(=O)(=O)c3ccc(Cl)cc3)cc2C1=O,-54.41
O=C(Nc1ccc(F)cc1)N1CCCCN2[C@H](CO)[C@H](c3ccc(C#Cc4ccccc4)cc3)[C@H]2C1,-77.93
O=C(C[C@H]1C[C@@H]2c3cc(NS(=O)(=O)c4ccc(F)cc4)ccc3O[C@@H]2[C@H](CO)O1)NCc1ccc(-c2ccccc2)cc1,-44.19
O=S(=O)(Cc1ccccc1)N1CCCCN2[C@@H](CO)[C@@H](c3ccc(-c4ccc(F)cc4)cc3)[C@@H]2C1,-93.76
Cc1ccc(-c2cnc3c(c2)C(=O)N([C@@H](C)CO)C[C@@H](C)[C@@H](CN(C)CC2CC2)O3)cc1,-34.66
CO[C@@H]1CN(C)C(=O)c2cc(NC(=O)Nc3ccc(C(F)(F)F)cc3)ccc2OC[C@H](C)NC[C@@H]1C,-30.61
C[C@H](CO)N1C[C@H](C)[C@H](CN(C)Cc2ccc(Cl)c(Cl)c2)Oc2ccc(NC(=O)Nc3ccccc3)cc2CC1=O,-41.61
C[C@@H]1CN([C@H](C)CO)C(=O)c2c(c3ccccc3n2C)-c2ccccc2CO[C@@H]1CN(C)S(=O)(=O)c1cccc(C#N)c1,-64.76
O=S(=O)(Cc1ccccc1)N1CCCCN2[C@@H](CO)[C@@H](c3ccc(-c4ccccc4)cc3)[C@@H]2C1,-56.22
COc1cccc(C#Cc2ccc([C@H]3[C@@H](C#N)N(C(=O)c4ccccn4)[C@@H]3CO)cc2)c1,-23.6
CO[C@@H]1CN(C)C(=O)c2ccc(NC(=O)c3ccc(Oc4ccccc4)cc3)cc2OC[C@H](C)NC[C@H]1C,-63.77
C[C@@H]1CN([C@@H](C)CO)S(=O)(=O)c2ccc(C3=CCCC3)cc2O[C@@H]1CN(C)Cc1ccccc1,-41.58
O=C(Nc1cccc(F)c1)N1CC(=O)N2[C@H](CO)[C@H](c3ccc(C#CCC4CCCC4)cc3)[C@@H]2C1,-27.28
O=C(C[C@H]1CC[C@H]2[C@@H](COC[C@@H](O)CN2Cc2cccc(C(F)(F)F)c2)O1)NCCc1ccccc1,-30.06
CC(C)CC#Cc1ccc([C@@H]2[C@@H](CO)N3CCCCN(C(=O)NC4CCCC4)C[C@@H]23)cc1,-27.05
Cc1noc(C)c1S(=O)(=O)Nc1ccc2c(c1)CC(=O)N([C@@H](C)CO)C[C@@H](C)[C@H](CN(C)CC1CCCCC1)O2,-41.73
C[C@H](CO)N1C[C@H](C)[C@H](CN(C)C(=O)Nc2cccc(Cl)c2Cl)OCc2ccccc2-c2c(n(C)c3ccccc23)C1=O,-43.92
C[C@H]1CN([C@@H](C)CO)C(=O)Cc2cc(NC(=O)Nc3cccc4ccccc34)ccc2O[C@@H]1CN(C)CC1CCCCC1,-21.21
C[C@@H]1CN([C@@H](C)CO)C(=O)c2cc(NC(=O)CCC(F)(F)F)ccc2O[C@@H](C)CCCCO[C@H]1CN(C)S(=O)(=O)c1ccc(F)cc1,-27.79
Cc1ccccc1-c1ccc2c(c1)O[C@@H](CN(C)C(=O)Nc1ccc(C(F)(F)F)cc1)[C@H](C)CN([C@@H](C)CO)S2(=O)=O,-60.9
CC(C)C#Cc1ccc2c(c1)O[C@@H](CN(C)CC1CCCC1)[C@H](C)CN([C@H](C)CO)S2(=O)=O,-63.62
O=C(C[C@@H]1CC[C@@H]2[C@H](COC[C@H](O)CN2Cc2ccc(C(F)(F)F)cc2)O1)N1CCc2ccccc2C1,-23.68
C[C@H](CO)N1C[C@H](C)[C@H](CN(C)C(=O)C2CCCCC2)Oc2ncc(C#Cc3cccc(F)c3)cc2C1=O,-36.9
C[C@H](CO)N1C[C@H](C)[C@@H](CN(C)Cc2ccc(Cl)c(Cl)c2)Oc2ccc(NS(=O)(=O)c3ccccc3)cc2CC1=O,-94.63
Cc1ccc(-c2ccc3c(c2)O[C@H](CN(C)Cc2ccncc2)[C@H](C)CN([C@H](C)CO)S3(=O)=O)cc1,-35.51
COc1ccc(CN(C)C[C@@H]2OCCCC[C@@H](C)Oc3ccc(NS(=O)(=O)c4ccc(F)cc4)cc3C(=O)N([C@@H](C)CO)C[C@H]2C)cc1,-29.17
O=C(NC1CCCC1)N1CCCCN2[C@@H](CO)[C@@H](c3ccc(-c4ccccc4)cc3)[C@@H]2C1,-65.69
C[C@H]1CN([C@@H](C)CO)C(=O)c2c(c3ccccc3n2C)-c2ccccc2CO[C@H]1CN(C)S(=O)(=O)c1ccc([N+](=O)[O-])cc1,-48.72
C[C@H](CO)N1C[C@H](C)[C@H](CN(C)C(=O)CCC(F)(F)F)OCCCC[C@H](C)Oc2ccc(NS(=O)(=O)c3ccc(F)cc3)cc2C1=O,-37.25

Some entries from above, unchanged:

{"structure": "Cc1noc(C)c1S(=O)(=O)Nc1ccc2c(c1)C(=O)N([C@H](C)CO)C[C@@H](C)[C@@H](CN(C)Cc1ccc(Cl)c(Cl)c1)OCCCC[C@H](C)O2", "activity change (Venus) (%)": "-53.78"}
{"structure": "N#C[C@@H]1[C@H](c2ccc(C3=CCCCC3)cc2)[C@H](CO)N1C(=O)c1cccc(F)c1", "activity change (Venus) (%)": "-38.31"}
{"structure": "O=C(C1CCCC1)N1CCCCN2[C@H](C1)[C@@H](c1ccc(-c3cccc(F)c3)cc1)[C@@H]2CO", "activity change (Venus) (%)": "-32.71"}
{"structure": "C[C@H](CO)N1C[C@H](C)[C@@H](CN(C)Cc2ccccc2)OCCCC[C@H](C)Oc2ccc(NS(=O)(=O)c3ccc(Cl)cc3)cc2C1=O", "activity change (Venus) (%)": "-54.41"}